# According to US7615377B2, “Fluorescein-based metal sensors” (Massachusetts Institute of Technology, priority 2003, dated 2009):
# For part of these data: At least one read-out could not be matched to a standard name with certainty. For part of these data: At least one structure is not confirmed: it was looked up by name or label, or the drawing left a doubt.
# What was measured:
# [1] = in 0.1 N NaOH; cited from earlier work
# [2] = Fluorescence response of sensor to Hg^2+ (fluorescence spectroscopy, integrated emission); assay type: binding; details: 2 ppb Hg^2+, pH 7, MS1 500 nM, average of 28 trials
# Experimental: General Spectroscopic Procedures. Ultrol grade PIPES (piperazine-N,N′-bis(2-ethanesulfonic acid) from Calbiochem, KCl (99.997%) and anhydrous HgCl2 (99.998%) were purchased and used as received. Millipore filtered water was used to prepare all aqueous solutions. With the exception of the pKa determination, all spectroscopic measurements were conducted at neutral pH with 50 mM PIPES, 100 mM KCl buffer adjusted to pH 7. An Orion glass electrode, calibrated prior to use, was employed to record solution pH. Mercury solutions were prepared from 10 mM stock solutions of HgCl2. Stock solutions of MS1 (1 mM in DMSO) was prepared, stored at −4° C., and thawed in the dark immediately prior to use. After addition of this stock solution to aqueous buffers, the resulting solution contained 0.1% DMSO for fluorescence and 1% DMSO for absorption measurements. The KaleidaGraph software package was used to manipulate all spectral data.
# Fluorescence Spectroscopy. Emission spectra were obtained with a Hitachi F-3010 spectrofluorimeter linked to a Pentium PC running the SpectraCalc software package. A rhodamine quantum counter was used to normalize the spectra for excitation intensity, and manufacturer-supplied correction curves were used to normalize the emission spectra. Manufacturer supplied photomultiplier curves were used to correct for emission intensity. […]
SMILES,quantum yield (quantum efficiency) of reference solution [1],fluorescence (integrated emission) increase in the presence of 2 ppb of Hg^2+ [2],fluorescence (integrated emission) increase in the presence of 2 ppb of Hg^2+ ([2]; listed as MS1)
O=C1OC2(c3ccc(O)cc3Oc3cc(O)ccc32)c2ccccc21 [fluorescein],0.95,–,–
"CCSCCN(CCSCC)Cc1ccccc1NCc1c(O)ccc2c(-c3ccccc3C(=O)O)c3cc(Cl)c(=O)cc-3oc12 [sensor 3, 2-{5-[(2-{[Bis-(2-ethylsulfanyl-ethyl)-amino]-methyl}-phenylamino)-methyl]-2-chloro-6-hydroxy-3-oxo-3H-xanthen-9-yl}-benzoic acid]",–,~11%,11.3±3.1%
